# No constants are given. Whether binding was seen depends on the method and setting. In cells and extracts the contact can be indirect. Some binding calls cover weakened binding; strength is not graded here. Tags and fused reporters may be left off the sequences shown.
# Protein sequences, listed by entry. Tags and fused reporters are not part of them. Residues count along the entry.
# UniProt P23471, residues 25-2315: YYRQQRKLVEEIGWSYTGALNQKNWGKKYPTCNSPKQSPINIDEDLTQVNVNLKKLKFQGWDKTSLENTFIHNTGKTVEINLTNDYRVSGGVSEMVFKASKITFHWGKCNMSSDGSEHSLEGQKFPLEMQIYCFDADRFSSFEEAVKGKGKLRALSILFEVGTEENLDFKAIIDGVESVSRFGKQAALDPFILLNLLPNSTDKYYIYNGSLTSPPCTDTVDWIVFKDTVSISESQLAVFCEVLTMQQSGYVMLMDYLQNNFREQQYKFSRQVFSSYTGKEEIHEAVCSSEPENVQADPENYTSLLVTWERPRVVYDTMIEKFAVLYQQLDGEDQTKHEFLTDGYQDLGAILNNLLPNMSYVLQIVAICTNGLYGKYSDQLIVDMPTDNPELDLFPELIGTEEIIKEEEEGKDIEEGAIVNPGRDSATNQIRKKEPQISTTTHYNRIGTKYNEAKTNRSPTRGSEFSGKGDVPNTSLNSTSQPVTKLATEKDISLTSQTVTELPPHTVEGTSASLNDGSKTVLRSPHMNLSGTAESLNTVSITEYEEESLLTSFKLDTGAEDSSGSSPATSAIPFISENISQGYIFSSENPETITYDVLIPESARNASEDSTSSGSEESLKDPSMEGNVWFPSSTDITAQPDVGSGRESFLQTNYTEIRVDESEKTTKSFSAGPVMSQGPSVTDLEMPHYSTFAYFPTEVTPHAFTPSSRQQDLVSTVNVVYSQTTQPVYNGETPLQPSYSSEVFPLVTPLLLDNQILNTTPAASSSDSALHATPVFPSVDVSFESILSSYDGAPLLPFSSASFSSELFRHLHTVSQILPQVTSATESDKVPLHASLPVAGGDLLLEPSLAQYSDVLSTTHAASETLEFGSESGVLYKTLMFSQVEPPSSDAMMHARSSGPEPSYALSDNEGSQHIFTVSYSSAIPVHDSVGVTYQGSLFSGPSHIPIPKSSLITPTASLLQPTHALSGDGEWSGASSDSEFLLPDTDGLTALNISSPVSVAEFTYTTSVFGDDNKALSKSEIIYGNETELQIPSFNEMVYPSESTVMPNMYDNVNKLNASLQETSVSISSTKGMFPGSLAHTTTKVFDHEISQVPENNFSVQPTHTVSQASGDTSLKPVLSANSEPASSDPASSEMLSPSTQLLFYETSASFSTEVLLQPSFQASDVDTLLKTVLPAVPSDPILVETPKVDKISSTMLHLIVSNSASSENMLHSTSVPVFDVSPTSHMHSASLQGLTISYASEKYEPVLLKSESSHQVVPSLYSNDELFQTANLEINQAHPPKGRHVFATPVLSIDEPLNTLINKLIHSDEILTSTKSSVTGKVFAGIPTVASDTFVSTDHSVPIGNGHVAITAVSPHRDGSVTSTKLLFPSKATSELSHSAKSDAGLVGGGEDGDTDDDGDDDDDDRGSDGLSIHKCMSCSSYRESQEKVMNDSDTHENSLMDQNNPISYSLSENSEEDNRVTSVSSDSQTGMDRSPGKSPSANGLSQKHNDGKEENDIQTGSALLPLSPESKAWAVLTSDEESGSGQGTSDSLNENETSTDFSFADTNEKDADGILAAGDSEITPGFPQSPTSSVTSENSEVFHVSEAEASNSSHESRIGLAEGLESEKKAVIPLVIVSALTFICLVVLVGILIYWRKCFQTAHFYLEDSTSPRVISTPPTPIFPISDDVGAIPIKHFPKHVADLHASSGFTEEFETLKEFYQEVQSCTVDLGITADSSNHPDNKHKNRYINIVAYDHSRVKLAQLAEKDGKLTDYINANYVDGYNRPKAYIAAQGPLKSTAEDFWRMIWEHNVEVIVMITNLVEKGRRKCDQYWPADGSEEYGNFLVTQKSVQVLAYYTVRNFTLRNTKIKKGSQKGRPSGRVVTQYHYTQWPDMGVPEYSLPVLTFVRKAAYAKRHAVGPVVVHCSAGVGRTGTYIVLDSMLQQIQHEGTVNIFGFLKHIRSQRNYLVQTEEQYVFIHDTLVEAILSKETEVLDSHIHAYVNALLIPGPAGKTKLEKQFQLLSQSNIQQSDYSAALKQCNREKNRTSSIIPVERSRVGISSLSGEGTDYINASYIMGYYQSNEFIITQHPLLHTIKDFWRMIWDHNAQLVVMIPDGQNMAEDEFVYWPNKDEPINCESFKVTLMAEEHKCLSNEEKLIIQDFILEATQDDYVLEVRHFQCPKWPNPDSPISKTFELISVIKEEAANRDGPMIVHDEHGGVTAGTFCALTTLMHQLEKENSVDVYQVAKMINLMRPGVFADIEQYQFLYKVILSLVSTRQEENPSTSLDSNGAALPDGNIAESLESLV
# B1: Pleiotrophin (PTN), HA-tagged, with TurboID fused behind the PTN coding sequence (ligand, UniProt P21246 33-168)
# chain: GKKEKPEKKVKKSDCGEWQWSVCVPTSGDCGLGTREGTRTGAECKQTMKTQRCKIPCNWKKQFGAECKYQFQAWGECDLNTALKTRTGSLKRALHNAECQKTVTISKPCGKLTKPKPQAESKKKKKEGKKQEKMLD
# Target: Z1-type protein tyrosine phosphatase receptor (PTPRZ1), Flag-tagged (human) (UniProt P23471)
# Assay: co-IP; 293T cells transfected with PTPRZ1-Flag (or empty Flag vector) and PTN-TurboID-HA for 18 h; lysis in 50 mM Tris-HCl pH 8.0, 150 mM NaCl, 1 mM EDTA, 1% NP-40; anti-FLAG M2 affinity gel, 4 °C, 1.5 h; beads split into 4 parts in PBS and incubated with curcumin (0, 40, 80, 160 µM) at 37 °C for 30 min, then washed; blot for HA
binder,measurement,value
B1,binding,binds
